The list shows a part of the results.
What was measured:
Experiment in all cases: protein microarray (ProtoArray v5.0), streptavidin-Alexa Fluor 647
Conditions in all cases: 3'-biotin; 20 mM Tris (pH 7.5), 5 mM MgCl2, 100 mM KCl, 0.1% Tween-20, A/T-rich and random oligonucleotide blockers; temperature not stated; high values mean tight binding
[1] = system: C17orf48 (human)
[2] = system: C17orf56 (human)
[3] = system: C19orf12 (human)
[4] = system: C1orf162 (human)
[5] = system: C1orf38 (human)
[6] = system: C1orf51 (human)
[7] = system: C1orf91 (human)
[8] = system: C20orf114 (human)
[9] = system: C20orf141 (human)
[10] = system: C20orf142 (human)
[11] = system: C20orf160 (human)
[12] = system: C20orf3 (human)
[13] = system: C21orf2 (human)
[14] = system: C21orf33 (human)
[15] = system: C21orf7 (human)
[16] = system: C21orf91 (human)
[17] = system: C2orf18 (human)
[18] = system: C2orf33 (human)
[19] = system: C2orf43 (human)
[20] = system: C4BPB (human)

Sequence: GGGGACAGGGGTATGGGGAGGGG [G4-3 biotinylated (CtG)]
- binding signal [1]: -0.333 z-score
- binding signal [2]: -0.318 z-score
- binding signal [3]: -0.343 z-score
- binding signal [4]: -0.312 z-score
- binding signal [5]: -0.32 z-score
- binding signal [6]: -0.292 z-score
- binding signal [7]: -0.334 z-score
- binding signal [8]: -0.32 z-score
- binding signal [9]: -0.315 z-score
- binding signal [10]: -0.333 z-score
- binding signal [11]: -0.329 z-score
- binding signal [12]: -0.329 z-score
- binding signal [13]: -0.292 z-score
- binding signal [14]: -0.335 z-score
- binding signal [15]: -0.329 z-score
- binding signal [16]: -0.325 z-score
- binding signal [17]: -0.317 z-score
- binding signal [18]: -0.333 z-score
- binding signal [19]: -0.338 z-score
- binding signal [20]: -0.309 z-score
